Assay results: the supplement of paper PMC6078165

Tested on: Hs578T
Assay: relative JC-1 red fluorescence (viability) vs pre-drug, coculture with fibroblast (fraction); higher = more viable cancer cells
Conditions: 100 µM
Protocol: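 JC-1 labelled TNBC cells cocultured 1:1 (1,500 cells each) with CellTrace Violet stained primary or stromal fibroblasts in 384-well plates in FluoroBrite medium, treated with one of 42 anticancer drugs at 0.1, 1, 10 or 100 uM. JC-1 red fluorescence (mitochondrial integrity in cancer cells only) was read by plate reader every 8 h for 72 h. Values are normalised to each well's pre-drug value. The stock of one drug was tenfold lower, so its dose labels may be too high.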

CC(=O)c1c(C)c2cnc(Nc3ccc(N4CCNCC4)cn3)nc2n(C2CCCC2)c1=O [Palbociclib]
Conditions	relative JC-1 red fluorescence
8 h	0.838
16 h	0.667
24 h	0.584
32 h	0.535
40 h	0.476
48 h	0.436
56 h	0.428
64 h	0.401
72 h	0.382

relative JC-1 red fluorescence
Conditions	8 h	16 h	24 h	32 h	40 h	48 h	56 h	64 h	72 h
coculture fibroblast: C12385	0.678	0.467	0.456	0.348	0.301	0.271	0.248	0.232	0.219
coculture fibroblast: H6013	0.43	0.27	0.23	0.202	0.175	0.161	0.14	0.125	0.1
coculture fibroblast: H6019	0.688	0.409	0.411	0.33	0.314	0.295	0.282	0.277	0.262
coculture fibroblast: H6076	0.855	0.605	0.529	0.479	0.438	0.43	0.419	0.409	0.404
coculture fibroblast: H6231	0.839	0.619	0.513	0.513	0.449	0.43	0.402	0.384	0.372
coculture fibroblast: HADF	0.46	0.254	0.208	0.185	0.166	0.158	0.142	0.134	0.113
coculture fibroblast: HCFa	0.613	0.385	0.323	0.283	0.245	0.233	0.212	0.195	0.171
coculture fibroblast: HCPF	0.934	0.72	0.55	0.509	0.427	0.404	0.395	0.359	0.343
coculture fibroblast: HHSteC	0.573	0.368	0.314	0.274	0.243	0.221	0.201	0.182	0.155
coculture fibroblast: HMF	0.88	0.574	0.475	0.442	0.38	0.355	0.335	0.312	0.302
coculture fibroblast: HPFa	0.755	0.475	0.399	0.338	0.301	0.275	0.246	0.229	0.197
coculture fibroblast: HUF	0.698	0.483	0.423	0.319	0.273	0.244	0.219	0.199	0.183
coculture fibroblast: Hs27A	0.501	0.316	0.229	0.204	0.178	0.17	0.15	0.143	0.114
coculture fibroblast: Hs343T	0.905	0.463	0.398	0.368	0.314	0.289	0.273	0.252	0.244
coculture fibroblast: WS1	0.488	0.296	0.279	0.203	0.166	0.15	0.134	0.123	0.111

The reference is the same well before dosing, and untreated signal decays as well.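 Labels refer to human fibroblasts, largely primary: uterine (C12385, HUF), lung (H6013), bone (Hs27A), adrenal (HADF), skin (WS1), plus mammary HMF and breast cancer-associated Hs343T. Cancer lines are basal-like or mesenchymal-like triple-negative breast cancer. The paper counts as hits responses shifting over 3x the replicate standard deviation. The tissue of the other fibroblasts is not given here.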
